Reference: the supplement of paper PMC3334620
In all, about 33,000 sequences were measured (“E-score (-0.5 to 0.5)”: median about -0.0014, highest 2% from about 0.25 on). This is one part of the list.

target: T1, Cad1 (UniProt P24813); experiment: PBM E-score (8-mer binding enrichment) (E-score (-0.5 to 0.5)); higher = stronger / more preferred TF binding; conditions: protein concentration: 100 nM; construct: GST-full length
T1 sequence: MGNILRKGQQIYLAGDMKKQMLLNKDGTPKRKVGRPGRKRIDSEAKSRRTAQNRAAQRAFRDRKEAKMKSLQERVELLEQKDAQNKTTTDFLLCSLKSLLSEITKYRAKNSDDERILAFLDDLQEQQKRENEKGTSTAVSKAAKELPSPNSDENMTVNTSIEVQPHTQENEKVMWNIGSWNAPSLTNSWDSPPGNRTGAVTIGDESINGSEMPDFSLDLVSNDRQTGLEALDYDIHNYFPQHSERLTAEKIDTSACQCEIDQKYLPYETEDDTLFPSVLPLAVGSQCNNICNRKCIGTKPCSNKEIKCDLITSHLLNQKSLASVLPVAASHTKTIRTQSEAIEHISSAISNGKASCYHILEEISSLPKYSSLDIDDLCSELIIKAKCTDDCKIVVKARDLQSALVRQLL
Experimental: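 Universal 'all 10-mer' protein binding microarrays (Agilent AMADID 015681) probed with GST-tagged S. cerevisiae TFs (full-length or DBD) made by in vitro transcription/translation (PURExpress), about 100-200 nM. Bound TF was detected with fluorescent anti-GST. Each ungapped 8-mer (which stands for itself and its reverse complement) is scored by the PBM enrichment score (E-score), a modified Wilcoxon-Mann-Whitney statistic from -0.5 to +0.5, computed with the Universal PBM Analysis Suite. Scale: above 0.35 generally sequence-specific binding.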

Compared with ACATTGGG, GTGGGATA is higher in “PBM E-score” value: -0.12 for the first, 0.0142 for the second.

First: ATCAGTGG
Second: CTAACGCC
The “PBM E-score” value of the first is lower: -0.238 for the first, -0.0478 for the second.

First: ATTCTACA
Second: AGAGGGCC
The “PBM E-score” value of the first is higher: 0.129 for the first, -0.183 for the second.

First: AAATTGGG
Second: TACTTAGA
The “PBM E-score” value of the first is higher: 0.0676 for the first, 0.00588 for the second.

Going from ACCAGGCA to GACGCGCC, the “PBM E-score” value rises from -0.169 to -0.0624.

Going from ACTCGCGA to AGCAGCAG, the “PBM E-score” value falls from 0.271 to 0.02.

First: CGACCACA
Second: ACCACTGG
The “PBM E-score” value of the first is lower: -0.0866 for the first, 0.0192 for the second.

Compared with CGCCGAAG, GCCCAGGC is lower in “PBM E-score” value: -0.118 for the first, -0.186 for the second.

First: ACTGCAAT
Second: ACAATTCC
The “PBM E-score” value of the first is higher: 0.062 for the first, 0.0313 for the second.

Compared with ACAACGAA, CGTTGGGA is lower in “PBM E-score” value: 0.145 for the first, 0.00172 for the second.

First: GACAGTAA
Second: TGAATAAA
The “PBM E-score” value of the first is higher: 0.0752 for the first, 0.0428 for the second.

Going from ATGAAGGG to AGCTGGAG, the “PBM E-score” value falls from -0.145 to -0.195.

Going from ATGCGCCC to ATCGTTTA, the “PBM E-score” value rises from 0.0507 to 0.121.

Compared with CAAGCTAC, AGGGCTTG is higher in “PBM E-score” value: -0.0346 for the first, 0.0467 for the second.

Compared with CGGGATAG, CTACGGAG is lower in “PBM E-score” value: 0.00323 for the first, -0.199 for the second.

Going from GCCAGACC to ACACCACG, the “PBM E-score” value rises from -0.146 to -0.129.

First: CAATGAAC
Second: CTATCGTA
The “PBM E-score” value of the first is higher: -0.00085 for the first, -0.0798 for the second.

Compared with CAATTTTC, AGATCCTC is lower in “PBM E-score” value: 0.125 for the first, -0.13 for the second.

Going from ACCATGAG to CGATCCCA, the “PBM E-score” value rises from -0.194 to -0.0615.

Compared with AAGAAACT, ATCTGTTA is higher in “PBM E-score” value: -0.0723 for the first, 0.154 for the second.

Compared with AGGGGGCA, CCTTATCC is higher in “PBM E-score” value: -0.327 for the first, -0.149 for the second.

Compared with CCCCCTGA, ACGAGCAA is higher in “PBM E-score” value: -0.414 for the first, -0.0425 for the second.

Going from ATTATGGC to CAAAATGA, the “PBM E-score” value falls from 0.138 to 0.0242.

First: GTGGTATA
Second: AACATAAT
The “PBM E-score” value of the first is lower: 0.0749 for the first, 0.19 for the second.

Compared with AATGTCGG, ACTCGATA is lower in “PBM E-score” value: 0.0242 for the first, -0.0222 for the second.

Compared with CATCGAAA, TATCATCA is higher in “PBM E-score” value: 0.0346 for the first, 0.123 for the second.

Going from AATACGCG to CCCCTATA, the “PBM E-score” value falls from 0.079 to -0.144.

Going from AATGACCC to CCAAAGCG, the “PBM E-score” value rises from -0.191 to -0.0811.

Going from ATATTGGG to AGTTAACT, the “PBM E-score” value falls from 0.0881 to 0.0483.

Compared with CATGTCAA, GAATCAGC is higher in “PBM E-score” value: -0.0895 for the first, 0.0939 for the second.

Going from CAGGCCAA to AGAGCGCG, the “PBM E-score” value rises from -0.0389 to -0.0178.

Going from ATCTCAAC to CCCTATTA, the “PBM E-score” value falls from 0.185 to -0.0208.

Going from ACAGGGTG to ACGAGTCT, the “PBM E-score” value rises from -0.264 to -0.0978.

Going from CTGGCAGA to CACCAATC, the “PBM E-score” value falls from 0.0308 to -0.15.

Going from CACGTTAG to CTACGTCA, the “PBM E-score” value rises from -0.116 to -0.00864.

Compared with ATCACGGA, GTCAACTA is lower in “PBM E-score” value: 0.204 for the first, 0.0756 for the second.

Going from ACAGCGGT to GGCGTTAA, the “PBM E-score” value rises from -0.0875 to 0.0252.

First: CCGTGTCG
Second: ACAGAGCC
The “PBM E-score” value of the first is higher: -0.0349 for the first, -0.108 for the second.

First: ATGTGCCC
Second: CCTGAGTC
The “PBM E-score” value of the first is lower: -0.071 for the first, -0.0376 for the second.

Going from GAGAACGC to CTCGCCAA, the “PBM E-score” value rises from -0.0828 to -0.0361.

Going from CCGCATAG to GCTTAAAC, the “PBM E-score” value rises from -0.0749 to -0.048.

First: ACCATGTA
Second: ATTTGGTG
The “PBM E-score” value of the first is higher: -0.00717 for the first, -0.0697 for the second.

Going from ATTCCGTA to ATCACCGG, the “PBM E-score” value falls from -0.0372 to -0.0703.

First: GTAATGAA
Second: AAACCATT
The “PBM E-score” value of the first is higher: 0.0605 for the first, -0.0299 for the second.

Compared with AGGAGCAG, CATTACTC is higher in “PBM E-score” value: -0.229 for the first, 0.0943 for the second.

Compared with TCCCCTCA, GGAGAAGA is lower in “PBM E-score” value: -0.0995 for the first, -0.19 for the second.

Compared with AAGTCCCT, GCGTTTAC is higher in “PBM E-score” value: -0.204 for the first, -0.0877 for the second.

Going from CGCCGTAA to CTTTGCTA, the “PBM E-score” value falls from 0.105 to -0.212.

First: TAGCCCCA
Second: ACCATATG
The “PBM E-score” value of the first is higher: 0.103 for the first, -0.012 for the second.

Going from CGCGTGCC to CAGAAGAC, the “PBM E-score” value falls from 0.0655 to 0.0287.

Going from AGGTCCAG to AAACTCGA, the “PBM E-score” value falls from 0.099 to 0.00847.

First: CTGCTCGA
Second: CCCCCTCC
The “PBM E-score” value of the first is higher: -0.115 for the first, -0.405 for the second.

Compared with GTGAGGCA, CTAAGGAA is higher in “PBM E-score” value: -0.09 for the first, 0.11 for the second.

First: ACACATGG
Second: ATAGGGCG
The “PBM E-score” value of the first is higher: -0.00572 for the first, -0.0809 for the second.

Going from AGCGTTCG to ACAGGTGG, the “PBM E-score” value rises from -0.154 to -0.0628.
